Assay results published in patent US20150362482A1 (priority 2013, published 2015).
At least one structure is not confirmed: it was looked up by name or label, or the drawing left a doubt.

System: networked ESN cultures
Format: cell-based, mouse

In the case of `CN1CCc2cc3c(cc2[C@H]1[C@@H]1OC(=O)c2c1ccc1c2OCO1)OCO3` [bicuculline], the “effect on spontaneous network activity” value was “rapidly converted spontaneous network activity to synchronized epileptiform discharges”.
